Reference: patent US11723888B2, “Polymer conjugated thyrointegrin antagonists” (NanoPharmaceuticals, LLC, priority 2021, dated 2023)
The structures given here were assigned with low confidence; some may be wrong. Each block holds one compound with its values, some of them ahead of it.

Chains of the proteins cited; added tags and fusions are not shown. Residues count along the entry.
UniProt P05106, 27-788 limits assumed: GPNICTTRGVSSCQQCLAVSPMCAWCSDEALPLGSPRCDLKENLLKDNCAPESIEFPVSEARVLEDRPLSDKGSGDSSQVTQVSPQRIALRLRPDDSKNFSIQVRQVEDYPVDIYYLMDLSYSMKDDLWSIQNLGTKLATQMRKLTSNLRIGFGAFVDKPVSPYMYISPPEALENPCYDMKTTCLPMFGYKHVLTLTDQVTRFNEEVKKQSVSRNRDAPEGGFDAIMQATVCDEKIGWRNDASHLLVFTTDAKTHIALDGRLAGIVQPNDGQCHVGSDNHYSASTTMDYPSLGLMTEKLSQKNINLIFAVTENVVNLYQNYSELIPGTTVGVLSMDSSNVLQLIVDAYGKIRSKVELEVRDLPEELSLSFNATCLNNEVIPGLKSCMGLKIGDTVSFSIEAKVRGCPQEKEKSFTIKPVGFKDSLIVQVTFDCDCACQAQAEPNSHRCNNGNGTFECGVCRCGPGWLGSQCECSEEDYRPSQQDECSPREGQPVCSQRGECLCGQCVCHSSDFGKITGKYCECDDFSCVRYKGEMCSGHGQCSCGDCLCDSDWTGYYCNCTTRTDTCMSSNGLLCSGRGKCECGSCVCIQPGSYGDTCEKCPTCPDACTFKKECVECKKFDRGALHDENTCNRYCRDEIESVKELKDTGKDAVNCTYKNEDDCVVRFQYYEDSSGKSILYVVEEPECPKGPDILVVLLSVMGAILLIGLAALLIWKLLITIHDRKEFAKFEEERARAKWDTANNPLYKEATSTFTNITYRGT
UniProt P06756, 31-889 limits assumed: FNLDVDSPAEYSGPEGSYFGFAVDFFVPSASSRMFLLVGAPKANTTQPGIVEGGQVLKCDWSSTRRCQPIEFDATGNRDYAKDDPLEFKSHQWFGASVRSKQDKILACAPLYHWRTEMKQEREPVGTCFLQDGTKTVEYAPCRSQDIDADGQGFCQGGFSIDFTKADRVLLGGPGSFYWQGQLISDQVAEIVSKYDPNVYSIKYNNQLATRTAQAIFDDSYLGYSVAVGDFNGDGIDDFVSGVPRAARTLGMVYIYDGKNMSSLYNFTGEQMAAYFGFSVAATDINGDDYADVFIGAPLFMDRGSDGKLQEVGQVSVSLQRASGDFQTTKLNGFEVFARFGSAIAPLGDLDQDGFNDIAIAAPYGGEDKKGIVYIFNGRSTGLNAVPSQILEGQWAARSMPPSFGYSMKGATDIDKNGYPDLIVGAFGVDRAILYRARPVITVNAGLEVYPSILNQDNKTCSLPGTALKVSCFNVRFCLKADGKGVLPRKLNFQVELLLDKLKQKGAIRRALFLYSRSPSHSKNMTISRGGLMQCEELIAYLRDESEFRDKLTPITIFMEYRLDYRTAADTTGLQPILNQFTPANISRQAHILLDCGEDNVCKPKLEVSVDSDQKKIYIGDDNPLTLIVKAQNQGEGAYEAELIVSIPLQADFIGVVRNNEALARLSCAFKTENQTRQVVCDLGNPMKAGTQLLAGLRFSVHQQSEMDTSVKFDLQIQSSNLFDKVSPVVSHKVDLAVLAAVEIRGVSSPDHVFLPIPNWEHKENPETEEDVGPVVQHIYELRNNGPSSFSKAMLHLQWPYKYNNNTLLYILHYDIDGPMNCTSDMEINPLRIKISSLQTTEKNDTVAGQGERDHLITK
UniProt P06756, 891-1048 limits assumed: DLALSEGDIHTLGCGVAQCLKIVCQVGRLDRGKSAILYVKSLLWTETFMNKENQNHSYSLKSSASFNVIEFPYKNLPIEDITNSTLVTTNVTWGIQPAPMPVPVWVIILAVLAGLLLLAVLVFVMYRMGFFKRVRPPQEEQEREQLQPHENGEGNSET

Key:
purified αvβ3 = purified αvβ3 (Homo sapiens, UniProt P05106+P06756); assay: Binding affinity to purified αvβ3 (fibrinogen-coated plate, IC50); details: read-out: binding affinity for αvβ3 (IC50 value); purified αvβ3, fibrinogen-coated plates, 2 hours room temperature
[1] = test system: MDMBA, A375 or A2780 cells; assay: Chorioallantoic membrane model (CAM) cancer implant model; details: 10 μg/CAM, breast (MDMBA), ovarian (A2780), skin (A375) implants
Method: The relative potency of the TET derivatives in the CAM cancer cell implant model of tumor weight was carried out as previously described by Marcinkiewicz, C., et al., Obtustatin: a potent selective inhibitor of α1β1 integrin in vitro and angiogenesis in vivo. Cancer Research, 2003. 63(9): p. 2020-2023 and Mousa, D. S., et al., Nanoformulated bioactive compounds derived from different natural products combat pancreatic cancer cell proliferation. International journal of nanomedicine, 2020. 15: p. 2259. Ten-day-old chick embryos were purchased from Charles River Avian Vaccine Services (Norwich, Conn., USA) and incubated at 37° C. with 55% relative humidity. […]
Human Breast cancer (MDMBA 231), Skin (A375) and Ovarian (A2780) cells were grown in Dulbecco's Modified Eagle's Medium (DMEM) supplemented with 10% fetal bovine serum and 1% penicillin/streptomycin. […] The cells were washed with culture medium and counted.
Either MDMBA, A375 or A2780 cells at 1×10^6 cells in 30 μl of medium were mixed with same volume of Matrigel and implanted on the CAM. […] The antitumor activities of the treatments on tumor angiogenesis and growth were determined 8 days after tumor cell implantation. […]

[2] = test system: skin cancer (A375) xenografts; assay: Subcutaneous xenograft in nude mice, skin cancer; details: 6 mg/kg daily s.c. 21 days
Method: (§1) Immunodeficient female NCr nude homozygous mice aged 5-6 weeks weighing 20-25 g were purchased from Taconic Biosciences, Inc (Germantown, N.Y., USA). All animal studies were conducted at the animal facility of the Veteran Affairs Medical Center (Albany, N.Y., USA) in accordance with approved institutional guidelines for humane animal treatment and according to the current guidelines. Mice were maintained under specific pathogen-free conditions and housed under controlled conditions of temperature (20-24° C.) and humidity (60-70%) and 12 hours light/dark cycle with ad libitum access to water and food. Mice were allowed to acclimatize for 5 days before the study.
(§2) For the subcutaneous (s.c.), the study was conducted where MDMBA231, A2780 and A375 cancer cells were harvested, suspended in 100 μL of DMEM with 50% Matrigel®, and 2-5×10^6 cells were implanted s.c. dorsally in each flank to achieve two independent tumors per animal. Immediately prior to initiation of treatments, animals were randomized into treatment groups (5 animals/group) by tumor volume measurements with Vernier calipers. Treatments were begun after detection of palpable tumor mass (4-5 days post implantation). The treatments were control (PBS), P-bi-TET (n=36) (6 mg/kg), and m-P-mono-TET (n=36) (6 mg/kg). The agents were administered daily, s.c. for 21 days (ON Treatment) in one treatment arm, and in another treatment arm, were administrated daily for 21 days followed by 21 days discontinuation (ON Treatment+OFF Treatment). Animals were then humanely sacrificed, and tumors were harvested. Tumor weights and cell viability (bioluminescent signal intensity) were measured.
(§3) Tumor width and length were measured with calipers at 3 day intervals during ON and ON+OFF study and volumes were calculated using the standard formula W×L^2/2. Tumor weight was measured of harvested lesions following animal sacrifice.

[3] = test system: ovarian cancer (A2780) xenografts; assay: Subcutaneous xenograft in nude mice, ovarian cancer; details: 6 mg/kg daily s.c. 21 days
Method: as §1, §2, §3

[4] = test system: breast cancer (MDMBA231) xenografts; assay: Subcutaneous xenograft in nude mice, breast cancer; details: 6 mg/kg daily s.c. 21 days
Method: as §1, §2, §3

[5] = measured 21 days after treatment (ON+OFF Treatment)

IC50 (purified αvβ3): 0.05 nM
SMILES: COCCOCCOCCOc1c(I)cc(Oc2c(I)cc(CC(=O)O)cc2I)cc1I

IC50 (purified αvβ3): 0.03 nM
SMILES: COCCOCCOCCOCCOCCOCCOCCOCCOCCOCCOCCOCCOCCOCCOCCOCCOc1c(I)cc(Oc2c(I)cc(CC(=O)O)cc2I)cc1I

SMILES: COCCOCCOCCOCCOCCOCCOCCOCCOCCOCCOCCOCCOCCOCCOCCOCCOCCOCCOCCOCCOCCOCCOCCOCCOCCOCCOCCOCCOCCOCCOCCOCCOCCOCCOCCOCCOc1c(I)cc(Oc2c(I)cc(CC(=O)O)cc2I)cc1I
mean tumor weight compared with the control group (PBS) ([1]; FIG. 12): reduction of tumor weight
tumor hemoglobin (tumor vascularity) compared with the control group (PBS) ([1]; FIG. 13): reduction of tumor hemoglobin
tumor weight reduced by [2, 5]: 85.4%
tumor volume compared with the control (PBS) ([2]; ON Treatment and ON+OFF Treatment, FIG. 15): reduction in tumor volume
tumor weight compared with the control (PBS) ([2]; ON Treatment and ON+OFF Treatment, FIG. 18): reduction in tumor weight
tumor weight reduced by [3, 5]: 89.6%
tumor volume compared with the control (PBS) ([3]; ON Treatment and ON+OFF Treatment, FIG. 14): reduction in tumor volume
tumor weight compared with the control (PBS) ([3]; ON Treatment and ON+OFF Treatment, FIG. 17): reduction in tumor weight
tumor weight reduced by [4, 5]: 88.5%
tumor volume compared with the control (PBS) ([4]; ON Treatment and ON+OFF Treatment, FIG. 16): reduction in tumor volume
tumor weight compared with the control (PBS) ([4]; ON Treatment and ON+OFF Treatment, FIG. 19): reduction in tumor weight
IC50 (purified αvβ3): 0.27 nM
